# Data taken from publication doi:10.1101/2023.06.01.543357.
# These are yes or no findings as the source states them, for the method shown. Some entries that bind do so weakly or less than the wild type. Where a sequence is shown, tags or fusion partners need not be part of it.
# Biological target: face-to-face (FtF) histone from Thermococcus kodakarensis (HTkC) (Thermococcus kodakarensis) (UniProt Q5JDW7)
# Assay: crystal structure
binder,measurement,value
"face-to-face (FtF) histone from Thermococcus kodakarensis (HTkC) (protein, UniProt Q5JDW7 1-59) MAEMLVKSKVKEFVKSVDPEMRVSPEFYDALEAEVKALVEKAIKRAQAEGRKTLYARHV",binding,binds
